This continues a long series; more values of the same kind are listed elsewhere.
Test system: revascularization, unstable angina requiring hospitalization, MI, all causes of death, or stroke
Test: PROVE IT-TIMI 22: SNP by treatment interaction (high-dose atorvastatin vs standard-dose pravastatin), logistic regression (synergy index), primary composite endpoint
Format: in vivo, human

SMILES: CC(C)c1c(C(=O)Nc2ccccc2)c(-c2ccccc2)c(-c2ccc(F)cc2)n1CC[C@@H](O)C[C@@H](O)CC(=O)O [Atorvastatin, atorvastatin]
- OR (rs9869187 allele C, ADD model, Imputed, atorvastatin vs pravastatin): 1.037
- OR (rs9869187 allele C, DOM model, Imputed, atorvastatin vs pravastatin): 1.037
- OR (rs9872327 allele T, DOM model, Imputed, atorvastatin vs pravastatin): 0.8286
- OR (rs9881685 allele A, ADD model, Imputed, atorvastatin vs pravastatin): 1.041
- OR (rs9881685 allele A, DOM model, Imputed, atorvastatin vs pravastatin): 1.041
- OR (rs9909499 allele C, DOM model, Imputed, atorvastatin vs pravastatin): 1.716
- OR (rs9911847 allele G, DOM model, Imputed, atorvastatin vs pravastatin): 0.5127
- OR (rs9958823 allele A, ADD model, Imputed, atorvastatin vs pravastatin): 1.083
- OR (rs9965248 allele T, ADD model, Imputed, atorvastatin vs pravastatin): 1.002
- OR (rs10021016, allele G, REC, Genotyped, atorvastatin vs pravastatin): 2.482
- OR (rs10046799, allele C, ADD, Imputed): 0.7946
- OR (rs10051148, allele C, DOM, Imputed): 0.6399
- OR (rs10051148, allele C, DOM, Imputed, atorvastatin vs pravastatin): 0.6399
- OR (rs10054055, allele T, DOM, Imputed): 0.5872
- OR (rs10054055, allele T, DOM, Imputed, atorvastatin vs pravastatin): 0.5872
- OR (rs10067895, allele A, DOM, Imputed): 0.577
- OR (rs10067895, allele A, DOM, Imputed, atorvastatin vs pravastatin): 0.577
- OR (rs10100725, allele C, DOM, Imputed, atorvastatin vs pravastatin): 1.055
- OR (rs10105871, allele C, DOM, Imputed): 1.492
- OR (rs10116807, allele A, REC, Imputed): 2.869
- OR (rs10121941, allele C, DOM, Imputed): 1.177
- OR (rs10128531, allele T, ADD, Imputed, atorvastatin vs pravastatin): 1.662
- OR (rs10128638, allele G, DOM, Genotyped): 0.6667
- OR (rs10181743, allele G, ADD, Imputed, atorvastatin vs pravastatin): 1.137
- OR (rs10195401, allele C, DOM, Imputed): 1.047
- OR (rs10199127, allele T, DOM, Imputed, atorvastatin vs pravastatin): 1.032
- OR (rs10239416, allele A, DOM, Imputed): 1.361
- OR (rs10430870, allele G, REC, Genotyped, atorvastatin vs pravastatin): 3.43
- OR (rs10468988, allele G, ADD, Imputed): 1.083
- OR (rs10469597, allele A, REC, Imputed, atorvastatin vs pravastatin): 1.249
- OR (rs10478919, allele G, DOM, Imputed): 0.593
- OR (rs10478919, allele G, DOM, Imputed, atorvastatin vs pravastatin): 0.593
- OR (rs10506623, allele C, ADD, Imputed, atorvastatin vs pravastatin): 0.7806
- OR (rs10506623, allele C, DOM, Imputed): 0.7185
- OR (rs10506623, allele C, DOM, Imputed, atorvastatin vs pravastatin): 0.7185
- OR (rs10506626, allele A, ADD, Imputed, atorvastatin vs pravastatin): 0.7544
- OR (rs10506626, allele A, DOM, Imputed): 0.6807
- OR (rs10506626, allele A, DOM, Imputed, atorvastatin vs pravastatin): 0.6807
- OR (rs10511071, allele C, DOM, Imputed): 0.8286
- OR (rs10511072, allele G, DOM, Imputed): 0.8286
- OR (rs10511199, allele C, ADD, Imputed): 1.021
- OR (rs10517918, allele G, REC, Imputed, atorvastatin vs pravastatin): 0.972
- OR (rs10517924, allele A, REC, Imputed, atorvastatin vs pravastatin): 1.079
- OR (rs10519362, allele G, DOM, Imputed, atorvastatin vs pravastatin): 1.656
- OR (rs10520072, allele T, DOM, Imputed): 0.5934
- OR (rs10520072, allele T, DOM, Imputed, atorvastatin vs pravastatin): 0.5934
- OR (rs10733846, allele G, ADD, Imputed): 0.8325
- OR (rs10733846, allele G, DOM, Imputed): 0.7557
- OR (rs10737390, allele T, DOM, Imputed): 1.128
- OR (rs10737390, allele T, DOM, Imputed, atorvastatin vs pravastatin): 1.128
- OR (rs10742851, allele T, REC, Imputed, atorvastatin vs pravastatin): 1.673
- OR (rs10743685, allele G, REC, Imputed, atorvastatin vs pravastatin): 1.446
- OR (rs10749293, allele G, DOM, Imputed): 1.442
- OR (rs10749293, allele G, DOM, Imputed, atorvastatin vs pravastatin): 1.442
- OR (rs10749294, allele A, DOM, Imputed, atorvastatin vs pravastatin): 1.341
- OR (rs10752159, allele G, DOM, Imputed): 1.434
- OR (rs10753760, allele T, ADD, Imputed): 0.9252
- OR (rs10753760, allele T, ADD, Imputed, atorvastatin vs pravastatin): 0.9252
- OR (rs10757887, allele C, DOM, Imputed): 1.073
- OR (rs10758326, allele A, ADD, Imputed): 0.6884
- OR (rs10758326, allele A, REC, Imputed): 0.3854
- OR (rs10762236, allele G, ADD, Genotyped): 0.93
- OR (rs10772362, allele T, ADD, Imputed, atorvastatin vs pravastatin): 0.8356
- OR (rs10784891, allele C, ADD, Imputed): 0.7472
